The supplement of paper PMC4604168 (melanoma cell lines)
Some of the results follow. Repeats are few or missing, and single values can be far off.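 Cells were imaged in 1,536-well plates, and nuclei stained with an antibody against cleaved PARP were counted against all DNA-stained nuclei to give the apoptosis fraction. Screening doses were chosen to leave most cells alive, and resting and induced cleaved-PARP levels differ strongly between cell lines.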

How the values were obtained:
Test in all cases: cleaved PARP positive nuclei fraction relative to DMSO control; melanoma cells; higher = more apoptosis
Conditions in all cases: library dose: low library concentration; 72 h
[1] = system: A101D
[2] = system: A2058
[3] = system: C32
[4] = system: CBRC008 (line from a melanoma biopsy)
[5] = system: CBRC014 (line from a melanoma biopsy)
[6] = system: CBRC016 (line from a melanoma biopsy)
[7] = system: CBRC017 (line from a melanoma biopsy)
[8] = system: COLO792
[9] = system: COLO800
[10] = system: COLO829
[11] = system: G361
[12] = system: IPC-298
[13] = system: IST-MEL1
[14] = system: LOXIMVI
[15] = system: A375
[16] = system: CBRC034 (line from a melanoma biopsy)
[17] = system: MEL-HO

CC(=O)O[C@@]12CO[C@@H]1C[C@H](O)[C@@]1(C)C(=O)[C@H](O)C3=C(C)[C@@H](OC(=O)[C@H](O)[C@@H](NC(=O)OC(C)(C)C)c4ccccc4)C[C@@](O)([C@@H](OC(=O)c4ccccc4)[C@H]21)C3(C)C [Docetaxel] + COc1cc2ncnc(Nc3ccc(Oc4ccccc4)cc3)c2cc1OC [SrcI1] (first compound 0.0001 µM, partner dose 2 µM) was tested, and the “cleaved PARP positive nuclei fraction” value [1] was 14.1%, the “cleaved PARP positive nuclei fraction” value [2] was 5040% and the “cleaved PARP positive nuclei fraction” value [3] was 542%. The “cleaved PARP positive nuclei fraction” value [4] was 378%, the “cleaved PARP positive nuclei fraction” value [5] was 159% and the “cleaved PARP positive nuclei fraction” value [6] was 190%. The “cleaved PARP positive nuclei fraction” value [7] was 249%, the “cleaved PARP positive nuclei fraction” value [8] was 510% and the “cleaved PARP positive nuclei fraction” value [9] was 665%. For the same compound, the “cleaved PARP positive nuclei fraction” value [10] was 353%, the “cleaved PARP positive nuclei fraction” value [11] was 630% and the “cleaved PARP positive nuclei fraction” value [12] was 409%. For the same compound, the “cleaved PARP positive nuclei fraction” value [13] was 241% and the “cleaved PARP positive nuclei fraction” value [14] was 97.5%.
With CC(=O)O[C@@]12CO[C@@H]1C[C@H](O)[C@@]1(C)C(=O)[C@H](O)C3=C(C)[C@@H](OC(=O)[C@H](O)[C@@H](NC(=O)OC(C)(C)C)c4ccccc4)C[C@@](O)([C@@H](OC(=O)c4ccccc4)[C@H]21)C3(C)C [Docetaxel] + O=C(O)c1ccc2c(c1)nc(Nc1cccc(Cl)c1)c1ccncc12 [CX4945] (first compound 0.0001 µM, partner dose 0.4 µM) the “cleaved PARP positive nuclei fraction” value [1] was 98%, the “cleaved PARP positive nuclei fraction” value [2] was 2300% and the “cleaved PARP positive nuclei fraction” value [15] was 3220%. For the same compound, the “cleaved PARP positive nuclei fraction” value [3] was 88.7%, the “cleaved PARP positive nuclei fraction” value [4] was 123% and the “cleaved PARP positive nuclei fraction” value [5] was 214%. The “cleaved PARP positive nuclei fraction” value [6] was 411%, the “cleaved PARP positive nuclei fraction” value [7] was 321% and the “cleaved PARP positive nuclei fraction” value [16] was 239%. For the same compound, the “cleaved PARP positive nuclei fraction” value [8] was 545%, the “cleaved PARP positive nuclei fraction” value [9] was 356% and the “cleaved PARP positive nuclei fraction” value [10] was 306%. The “cleaved PARP positive nuclei fraction” value [11] was 375%, the “cleaved PARP positive nuclei fraction” value [12] was 262% and the “cleaved PARP positive nuclei fraction” value [13] was 74.7%. The “cleaved PARP positive nuclei fraction” value [14] was 384% and the “cleaved PARP positive nuclei fraction” value [17] was 194%.
For C[C@@H](N)c1ccc(C(=O)Nc2ccnc3[nH]ccc23)cc1 + C[C@@H](Oc1cc(-c2cnn(C3CCNCC3)c2)cnc1N)c1c(Cl)ccc(F)c1Cl [Crizotinib] (first compound 0.4 µM, partner dose 0.2 µM), the “cleaved PARP positive nuclei fraction” value [1] was 44.7%, the “cleaved PARP positive nuclei fraction” value [2] was 236% and the “cleaved PARP positive nuclei fraction” value [15] was 112%. For the same compound, the “cleaved PARP positive nuclei fraction” value [3] was 90.5%, the “cleaved PARP positive nuclei fraction” value [4] was 70.3% and the “cleaved PARP positive nuclei fraction” value [5] was 115%. The “cleaved PARP positive nuclei fraction” value [6] was 29.9%, the “cleaved PARP positive nuclei fraction” value [7] was 120% and the “cleaved PARP positive nuclei fraction” value [16] was 307%. For the same compound, the “cleaved PARP positive nuclei fraction” value [8] was 190%, the “cleaved PARP positive nuclei fraction” value [9] was 119% and the “cleaved PARP positive nuclei fraction” value [10] was 98%. The “cleaved PARP positive nuclei fraction” value [11] was 98.4%, the “cleaved PARP positive nuclei fraction” value [12] was 169% and the “cleaved PARP positive nuclei fraction” value [13] was 86.8%. For the same compound, the “cleaved PARP positive nuclei fraction” value [14] was 148% and the “cleaved PARP positive nuclei fraction” value [17] was 53%.
COc1ccc(C2=N[C@@H](c3ccc(Cl)cc3)[C@@H](c3ccc(Cl)cc3)N2C(=O)N2CCNC(=O)C2)c(OC(C)C)c1 [Nutlin-3] + CCCCCCCCCCCC1=C(O)C(=O)C=C(O)C1=O [Embelin] (first compound 0.1 µM, partner dose 1.2 µM) was tested, and the “cleaved PARP positive nuclei fraction” value [1] was 23.2%, the “cleaved PARP positive nuclei fraction” value [2] was 93.1% and the “cleaved PARP positive nuclei fraction” value [3] was 93.5%. For the same compound, the “cleaved PARP positive nuclei fraction” value [4] was 42.3%, the “cleaved PARP positive nuclei fraction” value [5] was 76.3% and the “cleaved PARP positive nuclei fraction” value [6] was 15.8%. For the same compound, the “cleaved PARP positive nuclei fraction” value [7] was 88.3%, the “cleaved PARP positive nuclei fraction” value [8] was 100% and the “cleaved PARP positive nuclei fraction” value [9] was 23.2%. The “cleaved PARP positive nuclei fraction” value [10] was 49%, the “cleaved PARP positive nuclei fraction” value [11] was 79% and the “cleaved PARP positive nuclei fraction” value [12] was 122%. For the same compound, the “cleaved PARP positive nuclei fraction” value [13] was 72.9% and the “cleaved PARP positive nuclei fraction” value [14] was 54.7%.
C[C@@H](N)c1ccc(C(=O)Nc2ccnc3[nH]ccc23)cc1 + CN(c1ncccc1CNc1nc(Nc2ccc3c(c2)CC(=O)N3)ncc1C(F)(F)F)S(C)(=O)=O [PF562271] (first compound 0.4 µM, partner dose 0.08 µM) was tested, and the “cleaved PARP positive nuclei fraction” value [1] was 105%, the “cleaved PARP positive nuclei fraction” value [2] was 123% and the “cleaved PARP positive nuclei fraction” value [15] was 342%. The “cleaved PARP positive nuclei fraction” value [3] was 282%, the “cleaved PARP positive nuclei fraction” value [4] was 175% and the “cleaved PARP positive nuclei fraction” value [5] was 162%. The “cleaved PARP positive nuclei fraction” value [6] was 34.2%, the “cleaved PARP positive nuclei fraction” value [7] was 130% and the “cleaved PARP positive nuclei fraction” value [16] was 152%. The “cleaved PARP positive nuclei fraction” value [8] was 162%, the “cleaved PARP positive nuclei fraction” value [9] was 148% and the “cleaved PARP positive nuclei fraction” value [10] was 217%. The “cleaved PARP positive nuclei fraction” value [11] was 154%, the “cleaved PARP positive nuclei fraction” value [12] was 86.9% and the “cleaved PARP positive nuclei fraction” value [13] was 64.1%. The “cleaved PARP positive nuclei fraction” value [14] was 381% and the “cleaved PARP positive nuclei fraction” value [17] was 225%.
In the case of CC1(C)CCC(c2ccc(Cl)cc2)=C(CN2CCN(c3ccc(C(=O)NS(=O)(=O)c4ccc(N[C@H](CCN5CCOCC5)CSc5ccccc5)c(S(=O)(=O)C(F)(F)F)c4)cc3)CC2)C1 + C=CCNC1=C2C[C@@H](C)C[C@H](OC)[C@H](O)[C@@H](C)/C=C(\C)[C@H](OC(N)=O)[C@@H](OC)/C=C\C=C(/C)C(=O)NC(=CC1=O)C2=O [Tanespimycin] (first compound 0.4 µM, partner dose 0.002 µM), the “cleaved PARP positive nuclei fraction” value [1] is reported as 173%, the “cleaved PARP positive nuclei fraction” value [2] is reported as 51.3% and the “cleaved PARP positive nuclei fraction” value [15] is reported as 291%. For the same compound, the “cleaved PARP positive nuclei fraction” value [3] was 263%, the “cleaved PARP positive nuclei fraction” value [4] was 840% and the “cleaved PARP positive nuclei fraction” value [5] was 677%. For the same compound, the “cleaved PARP positive nuclei fraction” value [6] was 705%, the “cleaved PARP positive nuclei fraction” value [7] was 411% and the “cleaved PARP positive nuclei fraction” value [16] was 46%. The “cleaved PARP positive nuclei fraction” value [8] was 360%, the “cleaved PARP positive nuclei fraction” value [9] was 181% and the “cleaved PARP positive nuclei fraction” value [10] was 124%. The “cleaved PARP positive nuclei fraction” value [11] was 143%, the “cleaved PARP positive nuclei fraction” value [12] was 417% and the “cleaved PARP positive nuclei fraction” value [13] was 59%. The “cleaved PARP positive nuclei fraction” value [14] was 241% and the “cleaved PARP positive nuclei fraction” value [17] was 82.6%.
